Results deposited as PubChem BioAssay AID1259254 (NCATS, 2017).
The whole screen tested about 59,000 reagents; this is a random part of them. About 1,550 of them (2.6%) were called active. 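G2 share is only a proxy for re-replication; each gene was hit by three separate siRNAs, and active genes were retested.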 Entries without a mark were called inactive. The numbers tell different reagents against one gene apart. Further read-outs or replicates are left out here. Reagent sequences are not shown. Not given: the amount of reagent.

Screen: 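Genome-wide screen for genes that prevent DNA re-replication in cancer cells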 (primary screen)
System: human HCT116 colorectal cancer cells
Knock-down reagent: single siRNA against human genes
Duration: 3 days
Detection: 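Nuclei stained with Hoechst and imaged; cell-cycle phase assigned by DNA content; G2 share scaled per plate, non-targeting siRNA 0%, GMNN siRNA 100%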
Scale: G2 robust z-score: higher = more G2 cells, more excess DNA replication
Call rule: 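Active siRNAs have a G2 robust z of 5 or more median absolute deviations over the median, which in these data means about 38% or higher of GMNN control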

G2 robust z-score, by target gene and reagent
SPESP1 (sperm equatorial segment protein 1): #1 0.211; #2 0.0649; #3 -0.675
CLN6 (CLN6 transmembrane ER protein): #1 -0.164; #2 0.941; #3 -0.308
IL36RN (interleukin 36 receptor antagonist): #1 -0.374; #2 -0.45; #3 0.527
CLPX: #1 1.12; #2 -0.794; #3 -0.376
HECA (HECA ribonucleoprotein granule regulator): #1 -0.368; #2 -0.0504; #3 -0.617
TERF2 (telomeric repeat binding factor 2): #1 -0.517; #2 2.2; #3 1.52
ASIC3 (acid sensing ion channel subunit 3): #1 -0.699; #2 0.575; #3 0.619
MYCBP (MYC binding protein): #1 -0.454; #2 -0.389; #3 -0.613
YWHAEP7: #1 -0.652; #2 1.19; #3 0.152
ABCB6 (ATP binding cassette subfamily B member 6 (LAN blood group)): #1 0.349; #2 0.477; #3 -0.56
NACC2 (NACC family member 2): #1 -1.01; #2 -0.102; #3 0.153
WFDC6 (WAP four-disulfide core domain 6): #1 -0.000817; #2 -0.388; #3 -0.00339
TM9SF3 (transmembrane 9 superfamily member 3): #1 0.313; #2 -0.791; #3 -0.975
ELF3 (E74 like ETS transcription factor 3): #1 6.39 (active); #2 6.95 (active); #3 2.06
C9orf153 (chromosome 9 open reading frame 153): #1 -0.33; #2 0.131; #3 -0.305
VAMP8 (vesicle associated membrane protein 8): #1 0.727; #2 -0.221; #3 0.216
NDUFA11 (NADH:ubiquinone oxidoreductase subunit A11): #1 -0.912; #2 -0.0525; #3 -0.784
FKTN (fukutin): #1 0.108; #2 -0.452; #3 0.283
SP140 (SP140 nuclear body protein): #1 3.28; #2 1.07; #3 -0.784
UQCRHP2 (ubiquinol-cytochrome c reductase hinge protein pseudogene 2): #1 0.102; #2 -0.268; #3 0.303
EXOSC4 (exosome component 4): #1 2.04; #2 8.9 (active); #3 -0.732
CAT (catalase): #1 -1.68; #2 0.995; #3 1.27
SLC8A1: #1 -1.2; #2 -0.568; #3 -0.837

A stretch from the list above:
G2 robust z-score, by target gene and reagent
UQCRHP2 (ubiquinol-cytochrome c reductase hinge protein pseudogene 2): #3 0.303
EXOSC4 (exosome component 4): #1 2.04; #2 8.9 (active)
